Among the data in article PMC12134299 are binding values, retold here.

Protein sequences, listed by entry. Tags and fused reporters are not part of them. Lines headed by an entry give the natural chain unless they say otherwise; changes in a name come on top.
UniProt Q16665: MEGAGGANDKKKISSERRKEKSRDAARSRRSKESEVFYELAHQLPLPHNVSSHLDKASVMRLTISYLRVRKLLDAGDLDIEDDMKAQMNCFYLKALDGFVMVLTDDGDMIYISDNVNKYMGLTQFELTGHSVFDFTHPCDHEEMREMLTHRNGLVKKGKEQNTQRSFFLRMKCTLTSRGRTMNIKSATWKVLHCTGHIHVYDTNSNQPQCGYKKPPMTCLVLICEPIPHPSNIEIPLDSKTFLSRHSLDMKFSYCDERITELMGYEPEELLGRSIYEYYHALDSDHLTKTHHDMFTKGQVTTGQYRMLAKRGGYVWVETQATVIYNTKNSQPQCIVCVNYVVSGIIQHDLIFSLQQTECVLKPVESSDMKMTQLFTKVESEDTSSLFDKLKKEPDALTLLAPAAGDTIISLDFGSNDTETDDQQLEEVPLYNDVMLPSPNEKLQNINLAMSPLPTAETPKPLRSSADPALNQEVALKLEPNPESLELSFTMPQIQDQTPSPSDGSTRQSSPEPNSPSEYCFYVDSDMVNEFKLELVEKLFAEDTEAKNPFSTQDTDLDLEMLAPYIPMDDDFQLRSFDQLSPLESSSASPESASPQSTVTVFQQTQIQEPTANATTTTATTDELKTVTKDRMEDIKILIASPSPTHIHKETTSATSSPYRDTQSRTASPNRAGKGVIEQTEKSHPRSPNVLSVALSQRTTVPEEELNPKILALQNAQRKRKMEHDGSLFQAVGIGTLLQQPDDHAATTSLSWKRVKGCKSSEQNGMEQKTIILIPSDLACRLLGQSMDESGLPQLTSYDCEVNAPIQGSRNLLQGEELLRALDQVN
UniProt P14618: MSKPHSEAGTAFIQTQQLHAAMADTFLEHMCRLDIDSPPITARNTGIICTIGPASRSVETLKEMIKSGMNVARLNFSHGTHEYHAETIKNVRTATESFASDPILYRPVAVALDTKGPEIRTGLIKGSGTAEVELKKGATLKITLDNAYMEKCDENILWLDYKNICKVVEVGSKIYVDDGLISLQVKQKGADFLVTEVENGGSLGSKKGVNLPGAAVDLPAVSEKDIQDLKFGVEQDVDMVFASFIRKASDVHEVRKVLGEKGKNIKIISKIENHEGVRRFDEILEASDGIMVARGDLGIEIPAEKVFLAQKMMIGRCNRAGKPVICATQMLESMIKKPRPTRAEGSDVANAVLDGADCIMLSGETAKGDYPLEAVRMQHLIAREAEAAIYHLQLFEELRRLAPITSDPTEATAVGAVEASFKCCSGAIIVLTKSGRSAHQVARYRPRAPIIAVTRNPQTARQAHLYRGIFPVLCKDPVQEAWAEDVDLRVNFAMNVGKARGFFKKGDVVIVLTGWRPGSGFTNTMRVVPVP
UniProt O00629: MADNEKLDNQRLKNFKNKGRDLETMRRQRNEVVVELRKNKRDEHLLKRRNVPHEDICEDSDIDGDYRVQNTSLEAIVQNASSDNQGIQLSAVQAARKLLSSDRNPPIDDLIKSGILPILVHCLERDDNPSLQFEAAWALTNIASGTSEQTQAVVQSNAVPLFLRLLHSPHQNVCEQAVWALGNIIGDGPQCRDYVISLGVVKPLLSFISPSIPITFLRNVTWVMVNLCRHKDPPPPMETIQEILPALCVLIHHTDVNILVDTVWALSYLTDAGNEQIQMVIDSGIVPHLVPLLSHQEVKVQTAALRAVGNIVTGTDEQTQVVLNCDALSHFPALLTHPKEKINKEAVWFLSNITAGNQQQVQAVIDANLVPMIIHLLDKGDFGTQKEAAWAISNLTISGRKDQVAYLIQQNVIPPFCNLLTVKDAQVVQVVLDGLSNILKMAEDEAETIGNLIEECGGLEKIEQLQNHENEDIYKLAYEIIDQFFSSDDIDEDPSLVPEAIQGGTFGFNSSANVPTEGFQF

Results are given in words; binding and its absence hold for the method and conditions named. In cells and extracts the contact can be indirect. Some binding calls cover weakened binding; strength is not graded here.

Experiment [1] concerns the target Flag-HIF-1α C800S mutant (UniProt Q16665). As to the kind of experiment: co-IP; HEK-293T cells transfected with Flag-HIF-1α WT or C800S, with or without DMF; co-IP and western blot for p300 and PKM2 (Fig. 5G, 5I); which protein was precipitated not given. A general note: In western blotting, separated proteins are transferred to a membrane and probed.
Experiment [2] concerns the target Flag-HIF-1α WT (UniProt Q16665). The experiment is described as above.
Experiment [3] addresses Flag-HIF-1α C800S mutant (UniProt Q16665). As to the kind of experiment: co-IP; RCC4 cells with Flag-HIF-1α WT or C800S (importins transfected in Fig. 5B), with or without DMF or FHIN1; co-IP and western blot for importin α3 (Fig. 5B, 5J); which protein was precipitated not given.
Experiment [4] deals with Flag-HIF-1α WT (UniProt Q16665). The experiment is described as above.

Turning to PKM2 (from UniProt P14618 1-531), the binding entry in experiment [1] and in experiment [2] was “binds” in each case.
For importin α3 (from UniProt O00629 1-521), the binding entry in experiment [3] and in experiment [4] was “binds” throughout.
